Library screen at single concentrations

Data taken from ChEMBL document CHEMBL3988442, “University of Dundee, Small-Polar-MMV Screening Library” (2021).

A: 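Growth of Mycobacterium tuberculosis over 3 days (7H9 medium with glucose and tyloxapol); the read-out is not stated. Tested at 50 µM. The record gives no direction; compounds that gave an IC50 in retests scored well above the rest, so higher reads as more growth inhibition. About 69,000 compounds were tested under these conditions; 1.1% (about 760) showed 50% or more at least once.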
B: 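Growth of Mycobacterium tuberculosis over 4 days (cholesterol / DPPC medium with tyloxapol); the read-out is not stated. Compounds at 50 µM. The record gives no direction; compounds that gave an IC50 in retests scored well above the rest, so higher reads as more growth inhibition. About 69,000 compounds were tested under these conditions; 0.54% (about 370) showed 50% or more at least once.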

Each number is a percent effect as filed.
How 0% and 100% were set is not recorded. Most values in the screen are low, and negative values occur.
This is an unselected part of the compounds tested.
Two or more numbers in one place are separate tests of the same structure; such repeats can differ widely.

| compound | A | B |
|---|---|---|
| `CCc1cnc(N2CCC3(CC2)CN(c2cccnc2)C(=O)CO3)nc1.O=C(O)C(F)(F)F` | -19% | -18.09% |
| `Cc1cnc(C(NC(=O)NCc2nc(C3CC3)no2)C2CC2)s1` (centres undefined) | -9.013% | -2.907% |
| `O=C(c1cccnc1)N1CCc2c(nc(N3CCCC3)[nH]c2=O)C1` | 20.54% | -0.05831% |
| `O=C(c1ccc2sccc2c1)N1CCC(C(=O)O)(n2ccnc2)CC1` | -26.21% | -27.95% |
| `CCC(CCNC(=O)c1cc(C2CC2)nc2c1cnn2C)n1cccn1` (centres undefined) | -12.31% and 16.56% | 2.397% |
| `Cn1cc(CN2CCC(CCC(=O)NCc3ccc(F)cc3)CC2)cn1` | -11.53% | -0.7637% |
| `O=C(O)C(F)(F)F.[H][C@@]12OCCC[C@]1([H])N(S(=O)(=O)CC)C[C@H]2OCc1ccccn1` | -2.503% | -10.77% |
| `CN(Cc1nc2ccccc2[nH]1)C(=O)CN(C)c1ccccc1` | 7.903% and -15.55% | 15.72% |
| `Cn1cc(CN2CCc3ncnc(N4CCCC4)c3CC2)cn1` | -3.117% and -0.9805% | 13.69% |
| `COc1ccc2nnc(CCC(=O)Nc3nc(C)c(C)s3)n2n1` | -0.3843% | -15.9% |
| `CCCOC1CCCN(C(=O)c2cnc(-c3csc(C)n3)nc2O)C1` (centres undefined) | 6.793% | 10.49% |
| `O=C(C1CCCC1)N1CCC(c2n[nH]c3nccnc23)CC1` | 5.773% | -8.663% |
| `Cc1cnn(CC2CN(Cc3ccccn3)CCO2)c1` (centres undefined) | 8.121% | -8.802% |
| `Cc1nsc(NC(=O)N2CCCC2C)n1` (centres undefined) | -9.351% | 2.585% |
| `COc1ccc(-c2cc(N)ccn2)c(OC)c1OC` | -7.548% and -18.38% | 3.365% |
| `CCc1nc(C2CCCN2C(=O)CCc2nc(C3CC3)no2)no1` (centres undefined) | -14.1% | -6.612% |
| `CC1(C)CNC(=O)c2nc(-c3ccccc3)[nH]c2C1` | -8.579% | -0.1911% |
| `CC(=O)N1CCCN(C(=O)NCCCN(C)S(C)(=O)=O)CC1` | -12.7% | -12.39% |
| `CCc1cc(NCCNC(C)=O)nc(N2CCOCC2)n1` | 19.34% | -2.53% |
| `Cc1nc2c(c(=O)n1C)CN(C(=O)C1CCCN(C3CCCC3)C1)C2` (centres undefined) | -58.52% | -11.32% and -1.674% |
| `O=C(NCC1CC1)c1nnc2ccc(Cl)cc2n1` | 71.3% and 75.77% | 63.41% |
| `Cc1nc(NC(=O)C2(C)CN(C)CCO2)sc1C.Cl` (centres undefined) | -9.935% | 12.54% and -1.711% |
| `COCCNC(=O)Cn1cc(NC(=O)c2ccc(C(C)(C)C)cc2)cn1` | -24.58% | 1.192% |
| `COC(=O)[C@@H]1CN(C(=O)Nc2ccccc2)CCN1C(C)=O` | 7.408% and -1.291% | 26.69% |
| `COCCCN(Cc1ccc(F)cc1Cl)C1CCS(=O)(=O)C1` (centres undefined) | -18.56% | -14.4% |
| `O=S(=O)(N1CCCCC1)N1CCOC2(CCCC2)C1` | 8.582% | 0.9533% |
| `Cc1cnn(CCNCc2ccc(OCc3ccncc3)cc2)c1` | 2.235% | -2.693% |
| `Cc1cnn(C2CN(CC(=O)NCC3(c4ccccc4)CC3)C2)c1` | -9.532% | -14.08% and 3.362% |
| `Cc1ccc2c(c1)C(NC(=O)N(C)C)CC21CCN(C)CC1.O=C(O)C(F)(F)F` (centres undefined) | -18.21% | 8.637% |
| `CN(C)C(=O)CN1CCC2(CC1)C[C@@H](O)[C@H](c1ccccc1)NC2=O` | 6.03% | 11.93% |
| `[H][C@@]12COC[C@]1(CNC(=O)c1ccno1)CN(Cc1cccnc1OC)C2` | 9.21% | -14.16% |
| `NC(=O)c1cn[nH]c1C1CCCN1C(=O)c1cnccn1` (centres undefined) | -6.906% | 4.665% |
| `Cc1ccc(C)c(-n2ncc(C(=O)N(C)CCc3ccccn3)c2N)c1` | -15.92% | -20.65% |
| `CCC(NC1CCN(S(C)(=O)=O)CC1)c1cccs1` (centres undefined) | -4.953% | -21.52% |
| `O=C(NCCc1nncn1C1CC1)C1(Cc2ccccc2)CCC1` | 7.672% and -7.513% | 5.537% |
| `COCCN(CCN(C)C)C(=O)NC1CC1` | -12.57% | 7.464% |
| `CCc1cnc(NCC2OCCc3ccccc32)nc1` (centres undefined) | -1.075% | -4.047% |
| `Cc1ccc(CCC(=O)N(C)CCN2CCOCC2)c(C)c1` | 0.7286% and 16.64% | -5.948% |
| `COc1ccsc1C(=O)N1CCCC(n2nc(C)nc2C)C1` (centres undefined) | -2.65% | 6.424% |
| `N#CCCn1nc(C(F)(F)F)c2c1CCC2` | 21.79% | -3.029% |
| `Cc1cc(NC(=O)CN2CCCC(Cn3nc(C)nc3C)C2)n(C)n1` (centres undefined) | 3.005% | 7.159% |
| `O=C(O)C(F)(F)F.[H][C@@]12CCN(Cc3ccoc3)C[C@]1([H])OCCN(c1ccccc1)C2=O` | 10.02% | -10.78% |
| `CCN1CC2(CCOCC2)c2cc(NS(=O)(=O)CC)ccc21.O=C(O)C(F)(F)F` | 21.96% | 9.242% |
| `CCn1c(C2CCCN(Cc3cc(C)cc(C)c3)C2)nn(C)c1=O` (centres undefined) | -12.03% and -7.413% | -16.98% |
| `[H][C@@]12CC[C@H](Oc3ccccc3F)[C@]1([H])CN(C(=O)Cn1ccnc1)C2` | -27.35% | -8.785% |
| `Cc1ccc(CNCC2Cn3nncc3CO2)o1` (centres undefined) | 10.45% | 1.015% |
| `[H][C@]12CCN(S(=O)(=O)Cc3ccccc3)[C@@]1([H])CC[C@H](COC)O2` | 33.08% | -10.49% |
| `N#Cc1c(Cl)nsc1NCc1cccnc1OCC(F)(F)F` | 7.55% | -4.971% |
| `CCC(CNC(=O)C1CCC1)(OC)c1ccccc1` (centres undefined) | 10.54% and 6.925% | 26.34% |
| `Cn1cc(NC(=O)NCc2ccsc2)ccc1=O` | 1.491% | -1.057% |
| `CCO[C@H]1CN(C)C[C@@H]1NC(=O)c1c[nH]nc1C1CCCCC1` | 13.66% | 6.097% |
| `Cc1cc(NC2CC3(CCN(Cc4cscn4)C3)C2)ncn1` (centres undefined) | -2.107% | -23.61% and -6.564% |
| `CC(C)c1cc(C(=O)NCC2CCCN(C(C)C)C2)n(C)n1.Cl` (centres undefined) | -10.43% | 2.735% |
| `COc1cc(-c2nc3c([nH]2)CCCNC3=O)ccc1O` | 30.89% | 13.17% and -2.967% |
| `CC(NC(=O)CCNC(=O)c1ccoc1)c1ccccc1` (centres undefined) | -9.505% and -9.883% | -16.92% |
| `O=C(NCCOc1ccc(Cl)cn1)Nc1cccnc1` | 1.228% | -5.654% and -23.17% |
| `Cc1noc(C)c1CN1CCCC(CN(C(=O)OC(C)(C)C)C(C)C)C1` (centres undefined) | -4.403% | -28.92% and -9.312% |
| `Cc1n[nH]c(C2CN(C(=O)c3cc(C4CC4)on3)CCO2)n1` (centres undefined) | 16.45% | -17.13% |
| `CCN1CC(C(=O)N2CCN(c3nsc4ccccc34)CC2)CCC1=O` (centres undefined) | -1.287% and -13.87% | -1.496% |
| `[H][C@@]12CN(CC3CCOCC3)CCO[C@]1([H])CN(Cc1nc(C)cs1)C2` | -3.132% | -4.088% |
| `CC(C)CN1CCOC[C@H](Oc2ccc(S(C)(=O)=O)cc2)C1` | -8.292% and -30.32% | -21.8% |
| `O=C(NCc1ccc(OCC2CC2)nc1)C1COc2ccccc2O1` (centres undefined) | -2.171% | 15.2% |
| `COCCN(Cc1ccoc1)C(=O)c1ccccc1OC` | 16.34% | 0.7284% |
| `CCOC(=O)C1CCCCN1Cc1c[nH]nc1-c1cc2ccccc2o1` (centres undefined) | 30.73% | -2.045% |
| `Cc1cccc(N2CCOCC3(C2)CN(c2cccnc2)C(=O)CO3)n1` (centres undefined) | -7.866% | -9.012% |
| `N#CCCCS(=O)(=O)NC1(c2cccc(Br)c2)CC1` | 8.455% | 17.26% |
| `Cn1cc(CN2CCc3ccc(=O)n(Cc4ccncc4)c3CC2)cn1.O=C(O)C(F)(F)F.O=C(O)C(F)(F)F` | 1.33% | 6.771% |
| `[H][C@]12C[C@H](C(=O)NCC3CC3)N(C)[C@@]1([H])CN(Cc1ccoc1)C2` | -15.25% | -7.701% and -7.221% |
| `O=C(O)C(F)(F)F.O=C(c1cnoc1)N1CCC[C@]2(C[C@@H](Oc3ccccn3)CO2)C1` | -25.48% | 0.35% |
| `[H][C@]12CN(C(=O)c3cccnc3)C[C@@]1([H])C(=O)N(CCN1CCCC1)C2` | -39.49% | -22.7% |
| `CC(O)CNc1c(NCc2ccco2)c(=O)c1=O` (centres undefined) | 3.709% | -3.237% |

Repeated from the top, 6 entries:

| compound | A | B |
|---|---|---|
| `CCc1cnc(N2CCC3(CC2)CN(c2cccnc2)C(=O)CO3)nc1.O=C(O)C(F)(F)F` | -19% | -18.09% |
| `Cc1cnc(C(NC(=O)NCc2nc(C3CC3)no2)C2CC2)s1` (centres undefined) | -9.013% | -2.907% |
| `O=C(c1cccnc1)N1CCc2c(nc(N3CCCC3)[nH]c2=O)C1` | 20.54% | -0.05831% |
| `O=C(c1ccc2sccc2c1)N1CCC(C(=O)O)(n2ccnc2)CC1` | -26.21% | -27.95% |
| `CCC(CCNC(=O)c1cc(C2CC2)nc2c1cnn2C)n1cccn1` (centres undefined) | -12.31% and 16.56% | 2.397% |
| `Cn1cc(CN2CCC(CCC(=O)NCc3ccc(F)cc3)CC2)cn1` | -11.53% | -0.7637% |